Among the data in the GenesisPotency data set are outcome values, retold here.

Amino acid sequences for entries named in this document (tags omitted). A change or cut given only in a name is not applied to a line headed by its entry.
UniProt P19793: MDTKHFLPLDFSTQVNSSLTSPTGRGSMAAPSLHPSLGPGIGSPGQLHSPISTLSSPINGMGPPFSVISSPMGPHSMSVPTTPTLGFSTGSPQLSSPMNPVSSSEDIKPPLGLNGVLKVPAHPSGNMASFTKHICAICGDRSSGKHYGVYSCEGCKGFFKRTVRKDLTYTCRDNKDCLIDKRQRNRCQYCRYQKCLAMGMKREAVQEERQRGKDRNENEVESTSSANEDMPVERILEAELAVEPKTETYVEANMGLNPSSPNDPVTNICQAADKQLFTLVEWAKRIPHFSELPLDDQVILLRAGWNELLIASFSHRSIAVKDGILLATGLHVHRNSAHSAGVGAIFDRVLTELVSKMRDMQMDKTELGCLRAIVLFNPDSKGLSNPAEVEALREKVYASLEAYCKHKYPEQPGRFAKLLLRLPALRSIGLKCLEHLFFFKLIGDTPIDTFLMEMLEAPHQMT

The whole screen tested about 9,700 compounds, of which about 180 (1.9%) were called active. Inconclusive results (about 35%) are left out. The call rests on the fitted dose curve. The list shows a part of the results.

The target of the assay is Retinoic acid receptor RXR-alpha, Homo sapiens (UniProt P19793). The assay is described as follows: qHTS assay to identify small molecule agonists of the RXR signaling pathway (AID 1159527). In general terms: Quantitative high-throughput screening tests each substance at several concentrations.
As to `[I-].[Na+]`, the result was inactive.
